According to paper PMC8519919:
No constants are given. Whether binding was seen depends on the method and setting. In cells and extracts the contact can be indirect. A yes stands for co-enrichment or nearness to the bait. Other partners may have been found. Tags and fused reporters may be left off the sequences shown.

Sequences of proteins named here, by UniProt entry; tags and fusion partners are left off.
UniProt Q96CW5: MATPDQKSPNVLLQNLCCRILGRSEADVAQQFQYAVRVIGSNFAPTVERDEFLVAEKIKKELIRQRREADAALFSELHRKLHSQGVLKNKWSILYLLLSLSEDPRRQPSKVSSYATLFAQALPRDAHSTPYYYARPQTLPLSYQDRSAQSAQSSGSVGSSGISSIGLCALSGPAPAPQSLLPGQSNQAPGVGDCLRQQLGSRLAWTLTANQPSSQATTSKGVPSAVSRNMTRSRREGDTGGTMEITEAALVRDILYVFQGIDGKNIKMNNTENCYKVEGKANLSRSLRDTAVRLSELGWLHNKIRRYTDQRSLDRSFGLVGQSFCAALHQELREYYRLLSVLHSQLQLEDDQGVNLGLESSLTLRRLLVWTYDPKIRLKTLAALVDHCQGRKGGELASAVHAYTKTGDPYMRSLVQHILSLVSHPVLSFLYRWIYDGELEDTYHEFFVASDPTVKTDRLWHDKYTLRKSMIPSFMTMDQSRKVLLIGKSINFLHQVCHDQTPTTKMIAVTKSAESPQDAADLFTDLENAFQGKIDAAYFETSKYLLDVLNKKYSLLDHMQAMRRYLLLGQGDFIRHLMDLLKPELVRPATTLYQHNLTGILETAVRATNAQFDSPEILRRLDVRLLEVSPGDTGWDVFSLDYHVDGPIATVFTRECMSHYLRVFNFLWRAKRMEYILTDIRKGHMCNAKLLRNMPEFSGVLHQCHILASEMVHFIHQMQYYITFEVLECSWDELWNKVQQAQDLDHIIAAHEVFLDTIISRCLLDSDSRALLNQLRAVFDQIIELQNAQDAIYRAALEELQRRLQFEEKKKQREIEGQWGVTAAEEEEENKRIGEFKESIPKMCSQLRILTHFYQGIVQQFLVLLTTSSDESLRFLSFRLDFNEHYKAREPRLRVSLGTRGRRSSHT

Target: T1, FLAG-BirA^R118G-HAUS6 (UniProt Q7Z4H7)
T1 sequence: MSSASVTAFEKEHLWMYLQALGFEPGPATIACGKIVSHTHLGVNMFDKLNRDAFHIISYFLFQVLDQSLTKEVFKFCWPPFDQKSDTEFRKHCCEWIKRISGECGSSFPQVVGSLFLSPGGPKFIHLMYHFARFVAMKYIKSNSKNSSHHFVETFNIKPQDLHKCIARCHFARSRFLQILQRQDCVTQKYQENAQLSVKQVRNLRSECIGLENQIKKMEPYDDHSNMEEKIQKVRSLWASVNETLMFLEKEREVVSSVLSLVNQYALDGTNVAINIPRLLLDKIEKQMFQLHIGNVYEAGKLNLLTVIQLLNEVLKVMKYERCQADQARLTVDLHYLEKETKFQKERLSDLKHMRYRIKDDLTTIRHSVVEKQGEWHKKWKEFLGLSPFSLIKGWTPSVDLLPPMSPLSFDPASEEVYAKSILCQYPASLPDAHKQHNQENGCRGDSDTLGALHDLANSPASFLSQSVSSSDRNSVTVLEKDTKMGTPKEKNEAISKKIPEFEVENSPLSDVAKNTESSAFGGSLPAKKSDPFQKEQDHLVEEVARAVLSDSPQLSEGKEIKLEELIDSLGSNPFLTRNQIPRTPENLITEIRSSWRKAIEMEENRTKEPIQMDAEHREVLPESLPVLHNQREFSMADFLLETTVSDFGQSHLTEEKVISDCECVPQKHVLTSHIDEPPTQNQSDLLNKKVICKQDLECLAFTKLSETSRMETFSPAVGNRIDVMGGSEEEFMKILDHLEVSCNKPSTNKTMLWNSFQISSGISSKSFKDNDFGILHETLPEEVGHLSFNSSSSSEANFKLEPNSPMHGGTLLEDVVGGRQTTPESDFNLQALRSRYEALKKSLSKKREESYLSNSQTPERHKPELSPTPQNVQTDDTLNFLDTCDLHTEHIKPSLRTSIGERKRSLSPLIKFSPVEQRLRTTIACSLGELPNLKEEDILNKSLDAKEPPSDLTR
Assay: proximity labelling; BioID: U2OS cells stably expressing BirA-HAUS6 (BirA alone as negative control), 50 μM biotin overnight, lysis in RIPA buffer, streptavidin agarose capture of biotinylated proteins, mass spectrometry, SAINTexpress (BFDR ≤ 0.02, FC ≥ 3); performed once

## γTuRC subunit GCP3 (from UniProt Q96CW5 1-907)
  binding: binds
